# The other results are listed elsewhere or left out. Further columns of the screen follow, without active or inactive calls. Compounds called inactive in the main read-out are mostly missing here. Potencies come from curve fits of mixed quality, noted in brackets.
# Experiment: Cell signaling CRE-BLA (Fsk stim)
# Settings: CHO CRE-bla reporter (cAMP response element driving beta-lactamase), forskolin EC10, beta-lactamase ratio; measured here: 460 nm blue channel
# In short: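 Using CellSensor CRE-bla CHO cells in Opti-MEM with 0.5% dialyzed FBS, compounds were titrated with EC10 NKH 477 for 3 h at 37 °C. CCF4 ratio (460/530 nm) gave %Activity; AC50 derived.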
row,Structure (SMILES),AC50
1,Cc1nn(Cc2ccc(Cl)c(Cl)c2)c(C)c1NC(=O)c1cc(-c2ccco2)on1,"0.00398 µM [falling, full curve, poor fit]"
2,CCOC(=O)c1sc2nc3n(c(=O)c2c1C)CCCCC3,"12.6 µM [rising, partial curve]"
3,CN(C)C(CNC(=O)CN1C(=O)NC2(CCc3ccccc32)C1=O)c1ccco1 (configuration not stated),"0.0501 µM [falling, full curve, poor fit]"
4,COCCNC(=O)C(c1cccc(OC)c1)N(Cc1cccs1)C(=O)Cn1nnc2ccccc21 (configuration not stated),"0.1 µM [falling, full curve]"
5,CCOC(=O)c1c(C)n(OCc2ccccc2)c2ccc3c(no[n+]3[O-])c12,"1.58 µM [rising, full curve]"
6,Cc1ccn2c(-c3csc(NCc4ccco4)n3)c(C)nc2c1,"0.00398 µM [falling, full curve]"
7,CCOc1cc(CNc2ncc(-c3ccc(OC)cc3)n2C)ccc1O,"5.01 µM [falling, full curve, poor fit]"
8,O=C(c1ccncc1)N1CCC2(CCCN(c3cccc(-c4ccccc4)c3)C2)CC1,"15.8 µM [rising, single point]"
9,CC1CN(c2nc3ccccc3nc2C(C#N)C(=O)NCc2ccc3c(c2)OCO3)CC(C)O1 (configuration not stated),"0.631 µM [rising, full curve]"
10,CCOC(=O)c1c(C)[nH]c(C(=O)COC(=O)c2ccncc2)c1C,"5.01 µM [rising, single point]"
11,O=C(CSc1nnc(-c2ccncc2)n1-c1ccc(F)cc1)NC(=O)NCc1ccco1,"0.0251 µM [falling, full curve, poor fit]"
12,CCn1c(=O)c2cc(C(=O)NCc3cccs3)sc2c2ccccc21,"2 µM [rising, full curve]"
13,O=C(NCc1cccnc1)C1CCN(C(=O)c2ccc(Cl)cc2Cl)CC1,"3.16 µM [falling, partial curve, poor fit]"
14,O=C(Nc1ccccn1)N1CCOCC1,"0.158 µM [falling, full curve]"
15,CN(C)c1ccc(-c2ccc3ncnc(N(C)Cc4ccco4)c3c2)cc1,"3.98 µM [rising, full curve]"
16,CCOc1ccccc1Nc1nnc(Cc2ccccc2Cl)c(=O)[nH]1,"12.6 µM [falling, partial curve, poor fit]"
17,COc1ccc(CN2C(=O)CN(C3CCCCCC3)C(=O)C2c2ccc(OC)c(OC)c2)cc1 (configuration not stated),"0.00794 µM [rising, full curve, poor fit]"
18,Cc1noc(C)c1Cn1nc(C(=O)O)c2ccccc2c1=O,"20 µM [rising, single point]"
19,CCOC(=O)c1ccc(NC(=O)CSc2nc(SC)ns2)cc1,"0.00316 µM [falling, full curve, poor fit]"
20,Cc1nc2cnc(Oc3ccccc3)nc2n(C)c1=O,"25.1 µM [rising, single point]"
21,COc1ccc(-c2nc3cnc(N4CCN(C)CC4)nc3n(CCc3ccccc3)c2=O)cc1,"2.51 µM [rising, full curve]"
22,COc1ccc(C)cc1NC(=O)c1ccoc1C,"0.316 µM [rising, partial curve, poor fit]"
23,COc1cccc2c1[C@H](CO)N1[C@H](C#N)[C@@H]3C[C@H](C(=O)O)[C@@H]([C@@H]1C2)N3C,"2 µM [falling, single point]"

row,Structure (SMILES),AC50
1,CCc1ccc(-c2nn[nH]n2)cc1,"5.01 µM [falling, single point]"
2,CCOC(=O)c1cc(C(C)=O)c(=O)n(C)c1N,"25.1 µM [rising, single point]"
3,Cc1nnc(SCc2cnc(-c3ccccc3)o2)[nH]c1=O,"20 µM [rising, single point]"
4,COc1ccccc1CCn1c(=O)c(-c2cccc(F)c2)nc2cncnc21,"12.6 µM [rising, single point]"
5,CCc1cc(-c2n[nH]c(C)c2-c2nc3ccccc3n2C)c(O)c(CN2CCN(C)CC2)c1O,"0.00316 µM [falling, full curve, poor fit]"
6,CN(C)c1ncc2nc(-c3cccs3)c(=O)n(C)c2n1,"5.01 µM [rising, partial curve]"
7,O=c1c(CCc2ccccc2)nc2cnc(N3CCOCC3)nc2n1Cc1ccc(F)cc1,"15.8 µM [rising, partial curve]"
8,CCOC(=O)c1c(NC(=O)CC)sc(C(C)=O)c1C,"12.6 µM [rising, partial curve]"
9,CCn1c(SCC(=O)c2cc(C)n(CC3CCCO3)c2C)nc2ccccc21 (configuration not stated),"10 µM [rising, partial curve]"
10,COC(=O)c1ccccc1NC(=O)Nc1cccs1,"1.26 µM [falling, full curve]"
11,O=C(C[C@@H](C(=O)O)N1CCOCC1)c1ccccc1,"3.98 µM [falling, partial curve, poor fit]"
12,CCOc1ccc(-n2c(SCC(=O)Nc3ccc4c(c3)OCCO4)nc3c(c2=O)SCC3)cc1,"25.1 µM [rising, single point]"
13,Cc1sc2nc(CN3CCOCC3)nc(NS(=O)(=O)c3ccc4c(c3)OCCO4)c2c1C,"10 µM [rising, partial curve]"
14,O=C1COc2ccc(C(=O)COC(=O)c3ccc4ccccc4n3)cc2N1,"0.00794 µM [falling, full curve, poor fit]"
15,COc1ccc(-n2c(SCC#N)nnc2-c2ccc(NS(=O)(=O)c3ccc(C)cc3)cc2)cc1,"3.98 µM [rising, single point]"
16,O=C(CCNS(=O)(=O)c1cccc2nsnc12)N1CC(=O)N(CCc2ccccc2)C(=O)C1,"0.631 µM [falling, partial curve]"
17,O=C(CSc1ncnc2c1oc1ccccc12)c1cccs1,"15.8 µM [rising, single point]"
18,CCOC(=O)c1c(C2CC2)csc1NC(C)=O,"25.1 µM [rising, single point]"
19,O=C(CN1C(=O)COc2ccccc21)NCCN1CCc2ccccc2C1,"0.126 µM [falling, full curve, poor fit]"
20,Cc1scc(C(=O)Nn2cnnc2)c1-c1ccccc1,"0.00316 µM [falling, full curve, poor fit]"
21,Cc1cc2c(cc(C(=O)OCC(=O)NCc3cccs3)n2C(C)C)o1,"10 µM [rising, partial curve]"
22,O=C(c1cccc2cccc(O)c12)N1CCCCC1,"0.0316 µM [falling, full curve]"
23,O=c1c(-c2cccs2)nc2cnc(N3CCOCC3)nc2n1CCc1ccccc1,"0.501 µM [rising, full curve]"

# 4 compounds drawn at random from those above:
row,Structure (SMILES),AC50
21,Cc1cc2c(cc(C(=O)OCC(=O)NCc3cccs3)n2C(C)C)o1,"10 µM [rising, partial curve]"
18,CCOC(=O)c1c(C2CC2)csc1NC(C)=O,"25.1 µM [rising, single point]"
3,Cc1nnc(SCc2cnc(-c3ccccc3)o2)[nH]c1=O,"20 µM [rising, single point]"
2,CCOC(=O)c1cc(C(C)=O)c(=O)n(C)c1N,"25.1 µM [rising, single point]"

# Next part.

row,Structure (SMILES),AC50
1,Cc1c(CCC(=O)O)c(=O)oc2cc(O)ccc12,"12.6 µM [rising, single point]"
2,CCOC(=O)c1ccc(NC(=O)CSC2=NC(=O)C(CC)C(=O)N2)cc1 (configuration not stated),"3.16 µM [falling, single point]"
3,COc1ccc(Nc2ncnc3c2cnn3-c2ccccc2)cc1OC,"10 µM [rising, partial curve]"
4,Cc1nn(-c2ccccc2)c(C)c1C(=O)OCC(=O)NC(=O)NC1CCCCC1,"12.6 µM [rising, partial curve]"
5,O=C(CN1CCN(Cc2ccccc2Cl)C1=O)NC1CCCCCC1,"10 µM [rising, partial curve]"
6,CCCc1nc(N)c(C#N)c(-c2cccnc2)c1CC,"10 µM [rising, partial curve]"
7,O=c1c2[nH]c3ccccc3c2ncn1Cc1cccnc1,"25.1 µM [rising, single point]"
8,O=C(CSc1nc2ccccc2c(=O)n1CCCC(=O)N1CCCC1)NCc1ccco1,"10 µM [falling, single point]"
9,CCOC(=O)c1cc(-c2cccnc2)nn1-c1ccccn1,"2.51 µM [falling, partial curve, poor fit]"
10,Cc1c(C(=O)Nc2ccccc2Cl)oc2ccc(S(=O)(=O)N3CCC4(CC3)OCCO4)cc12,"25.1 µM [rising, single point]"
11,CCCc1ccc(Oc2cn[nH]c2-c2ccc(O)cc2O)cc1,"0.0631 µM [falling, partial curve, poor fit]"
12,C=C(C)CSc1nnc(-c2cccc(S(=O)(=O)N(C)C)c2)n1-c1cc(OC)ccc1OC,"20 µM [rising, partial curve]"
13,CNCC[C@@H](Oc1ccccc1C)c1ccccc1,"25.1 µM [falling, single point]"
14,CCCCn1c(SCC(=O)c2ccc3c(c2)OCCO3)nnc1-c1ccco1,"15.8 µM [rising, single point]"
15,COc1ccc2c(c1)[n+]([O-])c(/C(C)=N/NC(N)=S)c(C)[n+]2[O-],"3.98 µM [rising, partial curve]"
16,O=C(CSc1nc2ccccc2c2nc3ccccc3n12)NCc1ccco1,"2.51 µM [rising, full curve]"
17,COc1ccc2cc(C#N)c(NC(C)C)nc2c1,"12.6 µM [rising, single point]"
18,COc1ccc(C(=O)/C=C/Nc2cc(C)on2)c(OC)c1,"25.1 µM [falling, single point]"
19,O=c1c2ccccc2nc(-c2ccco2)n1Cc1ccccc1,"6.31 µM [rising, partial curve]"
20,O=c1c2ccccc2nc(COc2ccccc2)n1/N=C/c1ccco1,"3.16 µM [falling, partial curve, poor fit]"
21,CCCOc1ccc(C2C(C(=O)OC)=CN(CCOC)C=C2C(=O)OC)cc1,"10 µM [rising, partial curve]"

# 2 neighbouring records from above, quoted:
row,Structure (SMILES),AC50
8,O=C(CSc1nc2ccccc2c(=O)n1CCCC(=O)N1CCCC1)NCc1ccco1,"10 µM [falling, single point]"
9,CCOC(=O)c1cc(-c2cccnc2)nn1-c1ccccn1,"2.51 µM [falling, partial curve, poor fit]"

# From PubChem BioAssay AID662 (National Center for Advancing Translational Sciences (NCATS), 2007)
